Experimental data: patent publication US20210061896A1
Results are given in words; binding and its absence hold for the method and conditions named. Binding can be weak; no strength is given.

Sequences of proteins named here, by UniProt entry; tags and fusion partners are left off. A change or cut given only in a name is not applied to a line headed by its entry.
UniProt P23560: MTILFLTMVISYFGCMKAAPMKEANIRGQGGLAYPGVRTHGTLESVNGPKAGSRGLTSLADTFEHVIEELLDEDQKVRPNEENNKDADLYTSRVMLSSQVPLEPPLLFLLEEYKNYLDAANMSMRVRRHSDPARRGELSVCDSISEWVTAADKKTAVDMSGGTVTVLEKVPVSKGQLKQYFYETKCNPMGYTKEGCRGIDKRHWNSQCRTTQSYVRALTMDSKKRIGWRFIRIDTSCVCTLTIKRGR

Target: human proBDNF precursor protein (human) (UniProt P23560)
Assay: single-phage ELISA, antigen coated 100 ng/well

binding: binds
B1: single-chain antibody 2H8 (scFv)
scFv: EVQLVETGGGLVQPGGSLRLSCAASGFTFSSYGMHWVRQAPGKGLEWVSVISGSGDSTYYAESVKGRFTISRDNARNTVYLQMNSLRAEDTAVYYCASGILTGYVFDYWGKGTMVTVSSGGGGSGGGGSGGGGSDVVMTQSPLSLPVTLGQPASISCRSSQSLVSNDGNTYLNWFQQRPGQPPRRLIYMVSKWDSGVPDRFSGSGSGTDFTLRISRVEAEDVGVYYCMQSTHWPPTFGGGTKLEIKR
